Reference: PubChem BioAssay AID1224830 (NIAID, 2016)

- Screen: 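Host factors that control LPS-induced TNF expression in human macrophages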 (primary screen)
- Cell system: human THP-1 monocytic leukaemia cells, TNF dual-luciferase reporter clone, PMA-differentiated to macrophage-like cells
- Reagent: siRNA pool against human genes, 50 nM
- Duration: LPS for 4 h, given about 3 days after siRNA transfection
- Treatment: bacterial LPS (TLR4 ligand), 10 ng/ml
- Detection: 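TNF firefly reporter luminescence divided by renilla, normalised to the plate median, then turned into a robust z-score for each replicate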
- Direction: TNF reporter robust z-score: higher = stronger TNF reporter response to LPS
- Hit rule: 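Each well counts as active if its z-score is over 2.8 or under -1.5; controls are left without a call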
In all, the deposit lists about 18,000 reagents; below is a part drawn at random. In the full data, about 2,900 (16%) got an active call. 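Calls are made per well; low scores hint the gene aids the LPS response, high scores that it dampens it.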 A number with no mark means an inactive call. Repeated entries: four replicate wells of each siRNA pool.

no.	gene	TNF reporter robust z-score
1	SOCS1 (suppressor of cytokine signaling 1)	-0.26
2	SOCS1 (suppressor of cytokine signaling 1)	-0.03
3	SOCS1 (suppressor of cytokine signaling 1)	-0.65
4	SOCS1 (suppressor of cytokine signaling 1)	0.37
5	TNPO2 (transportin 2)	0.46
6	TNPO2 (transportin 2)	1.76
7	TNPO2 (transportin 2)	0.68
8	TNPO2 (transportin 2)	-1.64 (active)
9	HMGCL (3-hydroxy-3-methylglutaryl-CoA lyase)	-1.59 (active)
10	HMGCL (3-hydroxy-3-methylglutaryl-CoA lyase)	-0.05
11	HMGCL (3-hydroxy-3-methylglutaryl-CoA lyase)	-1.93 (active)
12	HMGCL (3-hydroxy-3-methylglutaryl-CoA lyase)	-1.26
13	LCK (LCK proto-oncogene, Src family tyrosine kinase)	-0.73
14	LCK (LCK proto-oncogene, Src family tyrosine kinase)	-0.37
15	LCK (LCK proto-oncogene, Src family tyrosine kinase)	-0.75
16	CACNA1G (calcium voltage-gated channel subunit alpha1 G)	0.21
17	CACNA1G (calcium voltage-gated channel subunit alpha1 G)	1.69
18	CACNA1G (calcium voltage-gated channel subunit alpha1 G)	-0.3
19	CACNA1G (calcium voltage-gated channel subunit alpha1 G)	0.57
20	KRT222 (keratin 222)	-1.16
21	KRT222 (keratin 222)	-0.81
22	KRT222 (keratin 222)	-0.86
23	KRT222 (keratin 222)	-1.56 (active)
24	NAA15 (N-alpha-acetyltransferase 15, NatA auxiliary subunit)	1.38
25	NAA15 (N-alpha-acetyltransferase 15, NatA auxiliary subunit)	2.19
26	NAA15 (N-alpha-acetyltransferase 15, NatA auxiliary subunit)	1.04
27	NAA15 (N-alpha-acetyltransferase 15, NatA auxiliary subunit)	2.22
28	OS9 (OS9 endoplasmic reticulum lectin)	-0.71
29	OS9 (OS9 endoplasmic reticulum lectin)	0.02
30	OS9 (OS9 endoplasmic reticulum lectin)	-0.21
31	OS9 (OS9 endoplasmic reticulum lectin)	1.09
32	PKD1L1	-0.34
33	PKD1L1	-0.87
34	PKD1L1	-0.56
35	PPBP (pro-platelet basic protein)	0.31
36	PPBP (pro-platelet basic protein)	0.48
37	PPBP (pro-platelet basic protein)	0.86
38	ST6GALNAC2 (ST6 N-acetylgalactosaminide alpha-2,6-sialyltransferase 2)	-0.77
39	ST6GALNAC2 (ST6 N-acetylgalactosaminide alpha-2,6-sialyltransferase 2)	-0.85
40	ST6GALNAC2 (ST6 N-acetylgalactosaminide alpha-2,6-sialyltransferase 2)	-0.43
41	ST6GALNAC2 (ST6 N-acetylgalactosaminide alpha-2,6-sialyltransferase 2)	-0.25
42	SYCP2 (synaptonemal complex protein 2)	-0.01
43	SYCP2 (synaptonemal complex protein 2)	0.96
44	SYCP2 (synaptonemal complex protein 2)	0.3
45	SYCP2 (synaptonemal complex protein 2)	0.45
46	FBXO6 (F-box protein 6)	-0.34
47	FBXO6 (F-box protein 6)	0.32
48	FBXO6 (F-box protein 6)	-0.32
49	FBXO6 (F-box protein 6)	2.03
50	SACM1L (SAC1 like phosphatidylinositide phosphatase)	2.25
51	SACM1L (SAC1 like phosphatidylinositide phosphatase)	1.57
52	SACM1L (SAC1 like phosphatidylinositide phosphatase)	0.69
53	SACM1L (SAC1 like phosphatidylinositide phosphatase)	0.65
54	GTF2IRD1 (GTF2I repeat domain containing 1)	-1.25
55	GTF2IRD1 (GTF2I repeat domain containing 1)	-0.38
56	GTF2IRD1 (GTF2I repeat domain containing 1)	-1.15
57	GTF2IRD1 (GTF2I repeat domain containing 1)	0.01
58	NFIC (nuclear factor I C)	-1.03
59	NFIC (nuclear factor I C)	-0.05
60	NFIC (nuclear factor I C)	-0.69
61	NFIC (nuclear factor I C)	-0.37
62	MRAS (muscle RAS oncogene homolog)	-1.25
63	MRAS (muscle RAS oncogene homolog)	-0.93
64	MRAS (muscle RAS oncogene homolog)	-1.05
65	MRAS (muscle RAS oncogene homolog)	-1.3
66	SNAP23 (synaptosome associated protein 23)	2.6
67	SNAP23 (synaptosome associated protein 23)	2.18
68	SNAP23 (synaptosome associated protein 23)	2.54
69	SNAP23 (synaptosome associated protein 23)	-0.29
70	CFAP43 (cilia and flagella associated protein 43)	0.98
71	CFAP43 (cilia and flagella associated protein 43)	1.8
72	CFAP43 (cilia and flagella associated protein 43)	0.6
73	CFAP43 (cilia and flagella associated protein 43)	1.12
74	AARSD1 (alanyl-tRNA synthetase domain containing 1)	-0.03
75	AARSD1 (alanyl-tRNA synthetase domain containing 1)	0.32
76	AARSD1 (alanyl-tRNA synthetase domain containing 1)	-0.43
77	AARSD1 (alanyl-tRNA synthetase domain containing 1)	0.14

Quoted from the listing for reference:
no.	gene	TNF reporter robust z-score
50	SACM1L (SAC1 like phosphatidylinositide phosphatase)	2.25
51	SACM1L (SAC1 like phosphatidylinositide phosphatase)	1.57
52	SACM1L (SAC1 like phosphatidylinositide phosphatase)	0.69
53	SACM1L (SAC1 like phosphatidylinositide phosphatase)	0.65
54	GTF2IRD1 (GTF2I repeat domain containing 1)	-1.25
55	GTF2IRD1 (GTF2I repeat domain containing 1)	-0.38
56	GTF2IRD1 (GTF2I repeat domain containing 1)	-1.15
57	GTF2IRD1 (GTF2I repeat domain containing 1)	0.01
